Here are results for twelve substances from paper doi:10.1101/2023.03.22.533843.

By UniProt entry, the sequences of proteins in these tests, tags left out.
UniProt Q9NWS0: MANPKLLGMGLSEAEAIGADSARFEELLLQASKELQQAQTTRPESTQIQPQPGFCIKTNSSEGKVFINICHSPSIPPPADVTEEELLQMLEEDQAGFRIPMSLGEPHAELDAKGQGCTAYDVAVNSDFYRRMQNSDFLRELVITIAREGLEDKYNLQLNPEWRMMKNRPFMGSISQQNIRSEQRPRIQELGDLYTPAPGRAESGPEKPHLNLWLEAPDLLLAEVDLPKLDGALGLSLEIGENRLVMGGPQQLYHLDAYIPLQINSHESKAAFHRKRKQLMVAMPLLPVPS
UniProt Q9H6T3: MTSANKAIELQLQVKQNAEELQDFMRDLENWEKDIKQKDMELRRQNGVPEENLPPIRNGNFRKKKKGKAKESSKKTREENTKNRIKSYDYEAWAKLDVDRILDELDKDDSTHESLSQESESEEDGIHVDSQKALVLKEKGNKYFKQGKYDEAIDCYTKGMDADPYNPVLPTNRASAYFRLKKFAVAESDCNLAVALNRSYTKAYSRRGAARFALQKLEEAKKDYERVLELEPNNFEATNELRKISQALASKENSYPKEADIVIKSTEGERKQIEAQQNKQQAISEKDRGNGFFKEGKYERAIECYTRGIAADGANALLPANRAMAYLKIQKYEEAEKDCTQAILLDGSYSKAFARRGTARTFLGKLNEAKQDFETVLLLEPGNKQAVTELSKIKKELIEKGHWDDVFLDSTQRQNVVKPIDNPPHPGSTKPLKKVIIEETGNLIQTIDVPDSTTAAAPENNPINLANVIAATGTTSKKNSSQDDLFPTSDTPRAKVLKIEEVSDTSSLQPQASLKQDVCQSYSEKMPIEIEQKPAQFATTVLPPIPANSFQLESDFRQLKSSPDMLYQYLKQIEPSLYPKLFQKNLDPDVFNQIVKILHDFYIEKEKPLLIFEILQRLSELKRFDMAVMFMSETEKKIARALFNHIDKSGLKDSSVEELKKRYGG
UniProt Q9Y265: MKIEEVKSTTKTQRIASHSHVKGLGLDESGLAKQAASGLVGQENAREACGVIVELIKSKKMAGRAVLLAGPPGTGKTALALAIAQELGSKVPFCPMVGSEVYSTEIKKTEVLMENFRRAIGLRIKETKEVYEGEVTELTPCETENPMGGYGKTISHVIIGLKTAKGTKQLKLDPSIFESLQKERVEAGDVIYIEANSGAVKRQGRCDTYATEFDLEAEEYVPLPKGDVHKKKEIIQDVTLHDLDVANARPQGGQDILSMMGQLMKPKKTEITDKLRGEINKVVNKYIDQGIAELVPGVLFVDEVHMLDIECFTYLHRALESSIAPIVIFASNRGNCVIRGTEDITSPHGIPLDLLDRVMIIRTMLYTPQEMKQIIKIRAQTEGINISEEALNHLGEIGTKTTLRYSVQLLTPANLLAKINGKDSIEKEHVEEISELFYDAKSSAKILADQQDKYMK
UniProt Q9Y230: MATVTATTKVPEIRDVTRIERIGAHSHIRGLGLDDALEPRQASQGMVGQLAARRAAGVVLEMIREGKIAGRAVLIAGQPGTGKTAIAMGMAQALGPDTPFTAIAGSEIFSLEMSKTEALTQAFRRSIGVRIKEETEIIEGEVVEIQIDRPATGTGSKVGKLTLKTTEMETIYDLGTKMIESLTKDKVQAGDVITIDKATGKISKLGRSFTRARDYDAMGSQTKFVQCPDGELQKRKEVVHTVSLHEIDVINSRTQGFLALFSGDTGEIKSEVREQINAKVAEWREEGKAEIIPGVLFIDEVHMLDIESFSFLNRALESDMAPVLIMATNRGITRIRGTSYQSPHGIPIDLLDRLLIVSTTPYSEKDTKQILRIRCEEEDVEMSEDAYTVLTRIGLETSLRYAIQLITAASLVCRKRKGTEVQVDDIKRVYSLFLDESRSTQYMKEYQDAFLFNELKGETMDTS
UniProt O60925: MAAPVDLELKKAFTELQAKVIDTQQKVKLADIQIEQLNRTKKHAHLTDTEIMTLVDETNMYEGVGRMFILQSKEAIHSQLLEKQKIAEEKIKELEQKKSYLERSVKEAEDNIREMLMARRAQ
UniProt Q99471: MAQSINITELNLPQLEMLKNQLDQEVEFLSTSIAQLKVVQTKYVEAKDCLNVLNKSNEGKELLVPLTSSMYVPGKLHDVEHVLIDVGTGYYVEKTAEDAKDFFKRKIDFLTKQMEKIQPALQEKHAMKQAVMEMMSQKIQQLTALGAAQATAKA
UniProt P61758: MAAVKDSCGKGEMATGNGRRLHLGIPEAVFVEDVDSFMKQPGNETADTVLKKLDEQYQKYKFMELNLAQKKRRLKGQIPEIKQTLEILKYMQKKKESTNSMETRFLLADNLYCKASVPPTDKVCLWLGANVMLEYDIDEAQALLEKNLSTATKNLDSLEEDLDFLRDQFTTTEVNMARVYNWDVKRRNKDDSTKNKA
UniProt Q9UHV9: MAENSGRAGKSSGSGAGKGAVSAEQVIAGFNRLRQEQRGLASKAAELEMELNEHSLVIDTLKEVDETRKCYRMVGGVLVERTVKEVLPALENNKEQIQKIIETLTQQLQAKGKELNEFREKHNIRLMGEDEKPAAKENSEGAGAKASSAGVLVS
UniProt Q9UBK9: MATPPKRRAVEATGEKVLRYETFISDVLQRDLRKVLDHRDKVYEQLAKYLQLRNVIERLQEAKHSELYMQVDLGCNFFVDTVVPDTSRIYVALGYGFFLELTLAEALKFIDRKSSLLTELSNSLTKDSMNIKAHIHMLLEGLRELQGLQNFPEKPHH
UniProt Q9NUG6: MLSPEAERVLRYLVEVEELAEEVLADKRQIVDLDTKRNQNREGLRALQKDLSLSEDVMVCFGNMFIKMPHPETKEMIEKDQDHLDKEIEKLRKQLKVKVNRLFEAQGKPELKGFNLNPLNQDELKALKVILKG
UniProt Q58FF6: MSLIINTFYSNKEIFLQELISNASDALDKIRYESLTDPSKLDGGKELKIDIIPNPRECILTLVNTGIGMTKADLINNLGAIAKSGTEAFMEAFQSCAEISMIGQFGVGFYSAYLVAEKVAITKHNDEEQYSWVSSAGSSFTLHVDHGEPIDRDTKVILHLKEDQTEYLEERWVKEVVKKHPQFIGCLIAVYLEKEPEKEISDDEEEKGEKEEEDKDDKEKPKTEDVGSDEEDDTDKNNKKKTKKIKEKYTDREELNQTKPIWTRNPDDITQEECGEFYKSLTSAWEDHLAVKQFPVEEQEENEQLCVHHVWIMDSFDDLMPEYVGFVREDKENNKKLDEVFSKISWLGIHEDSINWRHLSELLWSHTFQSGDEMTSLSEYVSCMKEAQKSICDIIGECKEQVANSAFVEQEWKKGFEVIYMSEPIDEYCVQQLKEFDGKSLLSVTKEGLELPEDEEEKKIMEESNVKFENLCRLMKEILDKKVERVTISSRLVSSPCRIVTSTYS
UniProt L0R819: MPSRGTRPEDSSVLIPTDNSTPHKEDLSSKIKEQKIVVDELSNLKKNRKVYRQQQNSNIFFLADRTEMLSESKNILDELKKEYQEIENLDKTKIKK
UniProt Q9NQP4: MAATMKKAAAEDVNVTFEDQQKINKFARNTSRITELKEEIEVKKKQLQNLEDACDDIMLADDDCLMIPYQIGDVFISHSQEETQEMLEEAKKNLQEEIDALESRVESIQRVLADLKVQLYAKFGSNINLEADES
UniProt P34931: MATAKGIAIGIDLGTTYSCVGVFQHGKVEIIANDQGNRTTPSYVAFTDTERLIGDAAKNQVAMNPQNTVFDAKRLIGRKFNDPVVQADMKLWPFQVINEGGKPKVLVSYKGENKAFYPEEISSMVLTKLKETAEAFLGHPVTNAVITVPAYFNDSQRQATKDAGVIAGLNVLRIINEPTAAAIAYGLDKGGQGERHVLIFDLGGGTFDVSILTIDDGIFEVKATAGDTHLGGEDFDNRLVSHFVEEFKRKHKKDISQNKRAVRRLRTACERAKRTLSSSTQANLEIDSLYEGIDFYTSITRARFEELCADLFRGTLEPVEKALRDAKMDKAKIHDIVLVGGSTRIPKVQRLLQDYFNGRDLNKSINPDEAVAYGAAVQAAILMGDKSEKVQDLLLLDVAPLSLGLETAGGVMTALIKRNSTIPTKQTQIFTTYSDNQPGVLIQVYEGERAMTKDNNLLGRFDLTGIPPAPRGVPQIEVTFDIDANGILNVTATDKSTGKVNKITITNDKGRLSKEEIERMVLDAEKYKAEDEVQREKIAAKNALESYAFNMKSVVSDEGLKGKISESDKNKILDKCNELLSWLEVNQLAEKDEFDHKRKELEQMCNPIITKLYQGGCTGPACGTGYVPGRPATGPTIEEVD
UniProt O15212: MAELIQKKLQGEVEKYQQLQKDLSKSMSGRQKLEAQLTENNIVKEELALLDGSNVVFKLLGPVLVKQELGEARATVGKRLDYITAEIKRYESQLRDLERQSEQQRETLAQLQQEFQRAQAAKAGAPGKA
UniProt P08238: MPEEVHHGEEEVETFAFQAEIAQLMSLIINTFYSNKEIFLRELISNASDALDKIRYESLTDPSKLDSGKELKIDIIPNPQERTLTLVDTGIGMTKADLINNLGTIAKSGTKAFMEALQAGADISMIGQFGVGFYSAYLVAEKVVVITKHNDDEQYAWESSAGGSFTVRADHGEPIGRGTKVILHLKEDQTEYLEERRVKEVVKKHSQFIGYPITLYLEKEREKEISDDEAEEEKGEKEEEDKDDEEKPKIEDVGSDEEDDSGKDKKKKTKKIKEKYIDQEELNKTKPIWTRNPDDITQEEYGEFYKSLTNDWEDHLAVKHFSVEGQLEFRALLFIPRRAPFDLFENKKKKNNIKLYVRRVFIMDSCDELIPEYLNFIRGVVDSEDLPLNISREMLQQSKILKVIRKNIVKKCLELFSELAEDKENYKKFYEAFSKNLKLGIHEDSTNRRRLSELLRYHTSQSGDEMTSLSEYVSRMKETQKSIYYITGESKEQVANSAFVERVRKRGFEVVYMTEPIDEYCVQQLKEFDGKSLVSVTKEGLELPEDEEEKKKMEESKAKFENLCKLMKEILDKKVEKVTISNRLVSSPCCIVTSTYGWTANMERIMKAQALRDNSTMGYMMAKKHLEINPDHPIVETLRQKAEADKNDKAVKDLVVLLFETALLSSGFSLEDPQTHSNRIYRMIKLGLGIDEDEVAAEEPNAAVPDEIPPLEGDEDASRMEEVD

Some targets named below: SH-tagged PIH1D1 (human) (UniProt Q9NWS0); SH-tagged RPAP3 (human) (UniProt Q9H6T3); SH-tagged RUVBL1 (human) (UniProt Q9Y265); SH-tagged RUVBL2 (human) (UniProt Q9Y230); SH-tagged PFDN1 (human) (UniProt O60925); SH-tagged PFDN5 (human) (UniProt Q99471); SH-tagged VBP1 (human) (UniProt P61758).
Experiment in all cases: affinity purification with mass spectrometry
In test [1] the target is PIH1D1 (endogenous prey) (human (endogenous in HEK293)) (UniProt Q9NWS0).
For test [2], the target named is RPAP3 (endogenous prey) (human (endogenous in HEK293)) (UniProt Q9H6T3).
The target of test [3] is SH-tagged PFDN2 (prefoldin subunit 2) (human) (UniProt Q9UHV9).
Test [4] has as its target SH-tagged UXT (human) (UniProt Q9UBK9).
Test [5] concerns the target SH-tagged PFDN2 (prefoldin subunit 2) (human) (UniProt Q9UHV9). This is another data set of the same source.
Test [6] deals with SH-tagged UXT (human) (UniProt Q9UBK9). The source holds these as a separate data set.
Test [7] concerns the target tagged PDRG1 (AP-MS bait) (human) (UniProt Q9NUG6).

Where two headings read alike, the source gives them in different places. No constants are given. Whether binding was seen depends on the method and setting. In cells and extracts the contact can be indirect. Here binding means that the protein was enriched with, or labelled near, the bait; the list need not be complete. For some of these results: No binding means not detected with the bait.

For the substance HSP90B4P (from UniProt Q58FF6 1-505), the binding result in test [1] and in test [2] was “binds” throughout.

In the case of “PFDN1 (endogenous prey) (from UniProt O60925 1-122)”, the binding result in test [3] is on record as “binds”; with SH-tagged UXT (human) [4] it was “no binding”.

ASDURF (from UniProt L0R819 1-96): the binding result (in test [3]; with SH-tagged UXT (human) [4]; in test [5]; in the test with SH-tagged PIH1D1 (human); in the test with SH-tagged RPAP3 (human); in the test with SH-tagged RUVBL1 (human)) was “binds” in each case. In addition, the binding entry (in the test with SH-tagged RUVBL2 (human); in the test with SH-tagged UXT (human) [6]; in [7]) was “binds” in each case.

Consider “PFDN4 (endogenous prey) (from UniProt Q9NQP4 1-134)”, for which the binding result was “binds” in [3] and “no binding” with SH-tagged UXT (human) [4].

As to “RUVBL1 (endogenous prey) (from UniProt Q9Y265 1-456)”, the binding result (in test [3]; with SH-tagged UXT (human) [4]) was “binds” in each case.

In the case of “VBP1 (endogenous prey) (from UniProt P61758 1-197)”, the binding result with SH-tagged UXT (human) [4] is “no binding”.

For “PFDN5 (endogenous prey) (from UniProt Q99471 1-154)”, the binding result in [3] is “binds”.

As to HSPA1L (from UniProt P34931 1-641), the binding result in test [1] and in test [2] was “binds” throughout.

In the case of “PDRG1 (endogenous prey) (from UniProt Q9NUG6 1-133)”, the binding entry (with SH-tagged PFDN1 (human); in test [3]; in the test with SH-tagged PFDN5 (human); in the test with SH-tagged UXT (human) [4]; in the test with SH-tagged VBP1 (human)) was “binds” each time.

Consider “PFDN6 (endogenous prey) (from UniProt O15212 1-129)”, for which the binding result (in [3]; in the test with SH-tagged UXT (human) [4]) was “binds” throughout.

For the substance “PFDN2 (endogenous prey) (from UniProt Q9UHV9 1-154)”, the binding entry with SH-tagged UXT (human) [4] was “binds”.

Consider HSP90AB1 (from UniProt P08238 1-724), for which the binding entry in [1] and in test [2] was “binds” in each case.
